The other results are listed elsewhere or left out.
Molecular target: OsWRKY34 (Oryza sativa, UniProt Q0JBA9 1-250)
Experiment: protein-binding microarray (RPBM); PBS, 2% BSA, 51.3 ng/ul salmon testes DNA, 50 uM zinc acetate, 200 nM TF, 25 C, 1 h; high values mean tight binding
Conditions: protein: recombinant; tags: N-terminal polyhistidine and DsRed monomer fusion (pET32a); label: CyDye5-dUTP incorporated in the synthesized complementary strand; 3' TTTTT single-stranded linker to array surface; dsDNA, one strand shown
Summary of the method: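 In PBS with 2% BSA, salmon testes DNA and 50 µM zinc acetate, 200 nM protein was incubated on a custom Agilent array at 25 °C for 1 h and then washed off. The array had been made double-stranded by primer extension with Cy5-dUTP and blocked with 2% BSA. The proteins were transcription factors fused N-terminally to polyhistidine and DsRed, expressed in E. coli BL21-CodonPlus and purified on Ni–NTA. The binding signal is per-feature fluorescence intensity (arbitrary units) from an Axon 4000B scanner.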

Chains of the proteins cited; added tags and fusions are not shown.
UniProt Q0JBA9, entry or part of it: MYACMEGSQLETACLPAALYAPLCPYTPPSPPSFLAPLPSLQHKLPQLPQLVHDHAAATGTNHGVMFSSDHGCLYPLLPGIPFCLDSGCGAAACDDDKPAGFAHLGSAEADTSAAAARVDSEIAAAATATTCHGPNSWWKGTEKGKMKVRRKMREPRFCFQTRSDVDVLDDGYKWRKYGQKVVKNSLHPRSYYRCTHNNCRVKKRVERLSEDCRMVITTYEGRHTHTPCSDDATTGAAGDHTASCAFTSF

Compared with “GGCGGGGTGGCTGTTGTCGACGTCGTGGTGGTCGGCGTCGCGGAGTCACCTAGTGCAG”, “TTGATGGGGTTCCTTGGTTGGTGTTTGATCTCAGATCTGTCGGAGTCACCTAGTGCAG” is lower in binding signal: 14900 fluorescence intensity (a.u.) for the first, 11400 fluorescence intensity (a.u.) for the second.

Going from “ATTTTCCTAGCTTTTTTATCTCGTTTTCTATGTGCACGCTCGGAGTCACCTAGTGCAG” to “CACCGTTGTTCCTCCTCAACACGCGCCACTCCTCACATTCCGGAGTCACCTAGTGCAG”, the binding signal falls from 10100 fluorescence intensity (a.u.) to 9230 fluorescence intensity (a.u.).

First: CACTTTGGCACTCGTCCATGCCTCATTTTTTCCCCTTCCGCGGAGTCACCTAGTGCAG
Second: TATATAATTTGTCGTCATTATACACCGTTGTTAGCCTCCACGGAGTCACCTAGTGCAG
The binding signal of the first is lower: 8950 fluorescence intensity (a.u.) for the first, 9360 fluorescence intensity (a.u.) for the second.

First: GGAGTGAGTTTGTTTCGTATTCCGCGCGCACGCTTCCCGACGGAGTCACCTAGTGCAG
Second: CGTCCATCCCCAGTCAAGTTCGCCGCGCGCAACACTCGCACGGAGTCACCTAGTGCAG
The binding signal of the first is higher: 9780 fluorescence intensity (a.u.) for the first, 8220 fluorescence intensity (a.u.) for the second.

Going from “CCATTTTTTTTTCAGAGTTTATAGTTTCATTTTGATTCTTCGGAGTCACCTAGTGCAG” to “TCTAATATTTCCGGGCCCTTTTTACACATGGGCGCCCACGCGGAGTCACCTAGTGCAG”, the binding signal rises from 8150 fluorescence intensity (a.u.) to 9050 fluorescence intensity (a.u.).

First: ACCGCACCTCACCAAAATCTCCATCCATCCGTCTGAATCCCGGAGTCACCTAGTGCAG
Second: GACTTTTACTGCACACACCTCGCAACTTGTTTCTCAGACTCGGAGTCACCTAGTGCAG
The binding signal of the first is lower: 9110 fluorescence intensity (a.u.) for the first, 12200 fluorescence intensity (a.u.) for the second.

Going from “CCGACATGGCCGTGTTCGATCTTGCCCGCGTTAATTAGCACGGAGTCACCTAGTGCAG” to “GTAGTCCTTGGTCCTCGCCGGCACGTCCTTCCACATGGCCCGGAGTCACCTAGTGCAG”, the binding signal falls from 8460 fluorescence intensity (a.u.) to 8260 fluorescence intensity (a.u.).

Compared with “TTTCCGCCGCGGCGAGGAGGAGGAGGAGGAGGAGGGGCGACGGAGTCACCTAGTGCAG”, “GAGGGACGTCCTCGCACGATCGCCGTTCATCCCGCATCCACGGAGTCACCTAGTGCAG” is lower in binding signal: 9980 fluorescence intensity (a.u.) for the first, 8710 fluorescence intensity (a.u.) for the second.

First: AGAGATGGGAGGGGAGGGAGAGAGAGACGAGAGAGATTGACGGAGTCACCTAGTGCAG
Second: TATGTTTTTATTGGTTTAAATAGTTAATCTCAATATTCTGCGGAGTCACCTAGTGCAG
The binding signal of the first is higher: 10300 fluorescence intensity (a.u.) for the first, 8550 fluorescence intensity (a.u.) for the second.

Compared with “AAGCGCCTGGTAGCGGAGAGTGGGAAAGAGCTGGCTGGCGCGGAGTCACCTAGTGCAG”, “ATCCCAAACACTCTCGCCTCGTCTCCTCTCACACCACACGCGGAGTCACCTAGTGCAG” is lower in binding signal: 60400 fluorescence intensity (a.u.) for the first, 10500 fluorescence intensity (a.u.) for the second.

Going from “ACCGTCCCCGCAGGCAAGCCAGCCCAAATGCCTCGAATAACGGAGTCACCTAGTGCAG” to “CACATGTTTTTTCTGTGTAACCATCTGTTTCTGAATTCTGCGGAGTCACCTAGTGCAG”, the binding signal rises from 8120 fluorescence intensity (a.u.) to 8420 fluorescence intensity (a.u.).

For “GTTTTCATTATTAATGTTGATTCACTTGTATTTTTCCATACGGAGTCACCTAGTGCAG”, the binding signal was 10300 fluorescence intensity (a.u.).

Reference: article PMC7819943, “Rice protein-binding microarrays: a tool to detect cis-acting elements near promoter regions in rice”
